{"source": "paper PMC12856970", "about": "(Clinical Pharmacology in Drug Development, 2025)", "key": {"[1]": {"assay": "Phase 1 DDI study: plasma PK of atorvastatin and its metabolites after atorvastatin alone or with steady-state asciminib (LC-MS/MS, non-compartmental)", "settings": "for Cmax: human"}, "P‐glycoprotein (P‐gp)": {"system": "P‐glycoprotein (P‐gp)", "settings": "liver; cited from earlier work"}, "[2]": {"system": "cytochrome P450 3A4 (CYP3A4)", "settings": "cited from earlier work"}, "[3]": {"settings": "atorvastatin 20 mg single dose + asciminib 80 mg QD at steady state (day 9), plasma"}, "[4]": {"settings": "atorvastatin 20 mg single oral dose alone (day 1), plasma"}, "[5]": {"settings": "atorvastatin + asciminib 80 mg QD steady state, linear mixed-effects model, back-transformed"}, "[6]": {"settings": "atorvastatin + steady-state asciminib 80 mg QD versus atorvastatin alone"}, "[7]": {"settings": "atorvastatin alone, linear mixed-effects model, back-transformed"}}}
{"smiles": "CC(C)c1c(C(=O)Nc2ccccc2)c(-c2ccccc2)c(-c2ccc(F)cc2)n1CC[C@@H](O)C[C@@H](O)CC(=O)O", "note": "[Atorvastatin, reference compound]", "values": [{"measurement": "AUCinf, Gmean (GCV%)", "setting": "[1]; [3]", "result": "39.2 (39.6) ng x h/mL"}, {"measurement": "AUCinf, Mean (SD)", "setting": "[1]; [3]", "result": "42.0 (16.4) ng x h/mL"}, {"measurement": "AUCinf, Median (min, max)", "setting": "[1]; [3]", "result": "40.6 (20.4, 82.6) ng x h/mL"}, {"measurement": "AUClast, Gmean (GCV%)", "setting": "[1]; [3]", "result": "36.8 (40.7) ng x h/mL"}, {"measurement": "AUClast, Mean (SD)", "setting": "[1]; [3]", "result": "39.6 (15.8) ng x h/mL"}, {"measurement": "AUClast, Median (min, max)", "setting": "[1]; [3]", "result": "38.8 (18.7, 80.0) ng x h/mL"}, {"measurement": "Cmax, Gmean (GCV%)", "setting": "[1]; [3]", "result": "6.45 (66.2) ng/mL"}, {"measurement": "AUCinf, Gmean (GCV%)", "setting": "[1]; [4]", "result": "33.9 (38.0) ng x h/mL"}, {"measurement": "AUCinf, Mean (SD)", "setting": "[1]; [4]", "result": "36.3 (15.4) ng x h/mL"}, {"measurement": "AUCinf, Median (min, max)", "setting": "[1]; [4]", "result": "34.4 (19.2, 81.6) ng x h/mL"}, {"measurement": "AUClast, Gmean (GCV%)", "setting": "[1]; [4]", "result": "31.5 (40.1) ng x h/mL"}, {"measurement": "AUClast, Mean (SD)", "setting": "[1]; [4]", "result": "34.1 (15.5) ng x h/mL"}, {"measurement": "AUClast, Median (min, max)", "setting": "[1]; [4]", "result": "30.6 (18.0, 80.1) ng x h/mL"}, {"measurement": "AUCinf, Adjusted Gmean", "setting": "[1]; [5]", "result": 38.8, "unit": "ng x h/mL"}, {"measurement": "AUClast, Adjusted Gmean", "setting": "[1]; [5]", "result": 36.5, "unit": "ng x h/mL"}, {"measurement": "Time post-dose at which mean Cmax was observed (mean concentration-time profile)", "setting": "[1]; atorvastatin + asciminib at steady state", "result": 0.5, "unit": "h"}, {"measurement": "Increase of adjusted Gmean of AUCinf by asciminib", "setting": "[1]; [6]", "result": 14, "unit": "%"}, {"measurement": "Increase of adjusted Gmean of AUClast by asciminib", "setting": "[1]; [6]", "result": 16, "unit": "%"}, {"measurement": "Increase of adjusted Gmean of Cmax by asciminib", "setting": "[1]; [6]", "result": 24, "unit": "%"}, {"measurement": "Time post-dose at which mean Cmax was observed (mean concentration-time profile)", "setting": "[1]; atorvastatin alone", "result": 1, "unit": "h"}, {"measurement": "AUCinf, Adjusted Gmean", "setting": "[1]; [7]", "result": 33.9, "unit": "ng x h/mL"}, {"measurement": "AUClast, Adjusted Gmean", "setting": "[1]; [7]", "result": 31.5, "unit": "ng x h/mL"}, {"measurement": "Cmax", "setting": "[1]; plasma, oral, 20 mg, Adjusted Gmean, atorvastatin alone, linear mixed-effects model, back-transformed", "result": 5.29, "unit": "ng/mL"}, {"measurement": "Cmax", "setting": "[1]; plasma, oral, Median (min, max), atorvastatin 20 mg single dose + asciminib 80 mg QD at steady state (day 9), plasma", "result": 7.71, "unit": "ng/mL"}, {"measurement": "Cmax", "setting": "[1]; plasma, po, 20 mg, Gmean (GCV%), atorvastatin 20 mg single oral dose alone (day 1), plasma", "result": 5.29, "unit": "ng/mL"}, {"measurement": "Cmax", "setting": "[1]; plasma, po, 20 mg, Mean (SD), atorvastatin 20 mg single oral dose alone (day 1), plasma", "result": 5.84, "unit": "ng/mL"}, {"measurement": "Cmax", "setting": "[1]; plasma, po, 20 mg, Median (min, max), atorvastatin 20 mg single oral dose alone (day 1), plasma", "result": 4.66, "unit": "ng/mL"}, {"measurement": "Contribution of P‐gp to total efflux", "setting": "P‐glycoprotein (P‐gp)", "result": 66, "unit": "%"}, {"measurement": "Fraction metabolized by CYP3A4", "setting": "[2]", "result": "Over 85%"}]}
